Measurements as given in the supplement of paper PMC10849652.
The other results are listed elsewhere or left out.

Chains of the proteins cited; added tags and fusions are not shown. Lines headed by an entry give the natural chain unless they say otherwise; changes in a name come on top.
UniProt Q9NR50: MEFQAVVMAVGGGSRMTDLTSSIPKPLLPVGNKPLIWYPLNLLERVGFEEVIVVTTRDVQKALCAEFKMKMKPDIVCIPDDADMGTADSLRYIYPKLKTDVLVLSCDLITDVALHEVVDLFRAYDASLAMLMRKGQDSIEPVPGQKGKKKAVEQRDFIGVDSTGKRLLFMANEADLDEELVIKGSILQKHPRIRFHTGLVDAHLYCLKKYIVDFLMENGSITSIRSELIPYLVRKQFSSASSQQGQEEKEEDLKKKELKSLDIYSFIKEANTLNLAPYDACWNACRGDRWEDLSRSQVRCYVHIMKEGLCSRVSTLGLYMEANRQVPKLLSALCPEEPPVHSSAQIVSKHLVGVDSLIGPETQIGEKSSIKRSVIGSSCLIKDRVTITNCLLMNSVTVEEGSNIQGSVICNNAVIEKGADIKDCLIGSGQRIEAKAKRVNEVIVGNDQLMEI
UniProt P55199: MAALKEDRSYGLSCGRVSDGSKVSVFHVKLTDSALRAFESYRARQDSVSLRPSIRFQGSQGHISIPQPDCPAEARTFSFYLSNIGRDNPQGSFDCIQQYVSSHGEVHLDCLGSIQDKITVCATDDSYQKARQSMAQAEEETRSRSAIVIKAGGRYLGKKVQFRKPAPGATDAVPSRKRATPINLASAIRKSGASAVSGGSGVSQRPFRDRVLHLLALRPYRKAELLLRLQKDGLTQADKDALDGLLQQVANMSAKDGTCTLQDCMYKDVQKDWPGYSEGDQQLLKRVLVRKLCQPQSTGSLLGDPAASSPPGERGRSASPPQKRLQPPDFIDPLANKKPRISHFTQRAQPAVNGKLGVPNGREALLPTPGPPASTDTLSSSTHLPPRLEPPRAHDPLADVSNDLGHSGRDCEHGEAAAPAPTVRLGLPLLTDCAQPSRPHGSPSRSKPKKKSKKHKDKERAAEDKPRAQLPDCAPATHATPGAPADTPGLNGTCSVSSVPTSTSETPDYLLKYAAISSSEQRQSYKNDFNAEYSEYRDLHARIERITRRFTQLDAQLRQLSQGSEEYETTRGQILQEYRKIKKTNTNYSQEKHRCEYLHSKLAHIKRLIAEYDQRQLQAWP
UniProt P09104, whole entry, looked up: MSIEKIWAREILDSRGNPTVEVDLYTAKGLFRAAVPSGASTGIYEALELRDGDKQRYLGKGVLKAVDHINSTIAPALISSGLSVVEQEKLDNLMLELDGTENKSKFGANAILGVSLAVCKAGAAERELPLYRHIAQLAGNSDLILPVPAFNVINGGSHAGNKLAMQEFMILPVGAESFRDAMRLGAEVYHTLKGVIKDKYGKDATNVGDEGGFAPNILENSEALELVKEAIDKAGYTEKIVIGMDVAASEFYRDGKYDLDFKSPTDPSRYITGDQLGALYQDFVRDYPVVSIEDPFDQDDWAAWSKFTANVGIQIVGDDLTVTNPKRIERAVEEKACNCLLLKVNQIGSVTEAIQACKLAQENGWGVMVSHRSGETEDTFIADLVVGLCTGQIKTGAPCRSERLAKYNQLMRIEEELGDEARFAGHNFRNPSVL
UniProt Q9H5J4: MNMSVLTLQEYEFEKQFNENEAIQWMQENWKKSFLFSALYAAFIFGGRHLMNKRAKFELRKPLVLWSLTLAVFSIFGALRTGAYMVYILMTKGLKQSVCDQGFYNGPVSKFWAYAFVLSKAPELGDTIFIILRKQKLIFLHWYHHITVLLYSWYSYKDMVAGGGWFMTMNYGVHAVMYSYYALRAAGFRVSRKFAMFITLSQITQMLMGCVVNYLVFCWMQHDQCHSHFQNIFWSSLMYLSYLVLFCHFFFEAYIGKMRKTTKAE
UniProt P19525: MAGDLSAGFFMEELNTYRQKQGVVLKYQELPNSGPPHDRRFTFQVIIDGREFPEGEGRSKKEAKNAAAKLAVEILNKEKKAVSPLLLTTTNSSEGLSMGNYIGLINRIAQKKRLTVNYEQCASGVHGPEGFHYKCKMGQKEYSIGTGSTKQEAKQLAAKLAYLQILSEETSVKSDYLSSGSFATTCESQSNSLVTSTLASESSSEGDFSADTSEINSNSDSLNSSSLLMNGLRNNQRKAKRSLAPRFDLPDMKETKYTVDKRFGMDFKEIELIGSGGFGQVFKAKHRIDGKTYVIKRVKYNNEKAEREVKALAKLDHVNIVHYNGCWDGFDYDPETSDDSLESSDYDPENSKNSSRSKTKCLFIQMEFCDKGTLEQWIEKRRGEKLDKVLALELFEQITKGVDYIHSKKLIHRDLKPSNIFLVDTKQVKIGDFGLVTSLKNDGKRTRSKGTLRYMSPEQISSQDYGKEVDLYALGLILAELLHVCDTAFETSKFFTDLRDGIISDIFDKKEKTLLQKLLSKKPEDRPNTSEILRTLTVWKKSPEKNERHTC
UniProt P11171, whole entry, looked up: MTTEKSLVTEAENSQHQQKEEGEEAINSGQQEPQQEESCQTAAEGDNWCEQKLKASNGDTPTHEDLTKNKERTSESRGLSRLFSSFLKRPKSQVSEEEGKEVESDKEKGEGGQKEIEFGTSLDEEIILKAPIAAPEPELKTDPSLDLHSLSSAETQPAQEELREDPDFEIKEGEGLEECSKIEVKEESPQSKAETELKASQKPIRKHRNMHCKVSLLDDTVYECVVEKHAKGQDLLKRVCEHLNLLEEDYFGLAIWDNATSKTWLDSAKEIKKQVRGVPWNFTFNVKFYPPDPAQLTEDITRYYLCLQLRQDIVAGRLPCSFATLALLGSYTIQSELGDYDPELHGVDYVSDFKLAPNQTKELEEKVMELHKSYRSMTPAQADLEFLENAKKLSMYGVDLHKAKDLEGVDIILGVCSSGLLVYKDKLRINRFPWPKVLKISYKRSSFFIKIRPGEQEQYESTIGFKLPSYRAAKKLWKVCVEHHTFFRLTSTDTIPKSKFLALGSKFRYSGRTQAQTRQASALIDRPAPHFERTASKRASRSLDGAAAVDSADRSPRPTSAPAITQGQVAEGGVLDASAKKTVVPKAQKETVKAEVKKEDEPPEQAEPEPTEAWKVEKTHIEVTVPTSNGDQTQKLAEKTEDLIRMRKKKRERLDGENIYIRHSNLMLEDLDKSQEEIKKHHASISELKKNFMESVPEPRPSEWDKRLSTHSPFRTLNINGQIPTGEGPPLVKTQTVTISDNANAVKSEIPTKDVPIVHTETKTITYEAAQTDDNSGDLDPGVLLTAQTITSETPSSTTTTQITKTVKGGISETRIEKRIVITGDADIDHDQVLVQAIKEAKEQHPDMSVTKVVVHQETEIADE
UniProt P63241: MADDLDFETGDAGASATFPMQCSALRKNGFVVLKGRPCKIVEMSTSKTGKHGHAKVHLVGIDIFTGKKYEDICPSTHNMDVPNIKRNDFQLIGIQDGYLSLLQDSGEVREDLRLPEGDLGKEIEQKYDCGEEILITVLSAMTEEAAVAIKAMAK
UniProt Q96RQ1: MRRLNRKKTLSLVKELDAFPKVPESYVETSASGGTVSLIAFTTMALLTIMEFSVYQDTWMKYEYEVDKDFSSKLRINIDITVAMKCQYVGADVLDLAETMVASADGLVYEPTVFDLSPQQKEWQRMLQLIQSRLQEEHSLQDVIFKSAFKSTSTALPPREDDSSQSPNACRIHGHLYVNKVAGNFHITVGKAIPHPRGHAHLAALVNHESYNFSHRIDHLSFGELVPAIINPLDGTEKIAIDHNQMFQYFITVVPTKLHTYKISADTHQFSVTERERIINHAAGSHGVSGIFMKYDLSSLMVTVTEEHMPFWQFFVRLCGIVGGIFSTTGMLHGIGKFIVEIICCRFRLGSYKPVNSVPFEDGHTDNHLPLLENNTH
UniProt O14638, whole entry, looked up: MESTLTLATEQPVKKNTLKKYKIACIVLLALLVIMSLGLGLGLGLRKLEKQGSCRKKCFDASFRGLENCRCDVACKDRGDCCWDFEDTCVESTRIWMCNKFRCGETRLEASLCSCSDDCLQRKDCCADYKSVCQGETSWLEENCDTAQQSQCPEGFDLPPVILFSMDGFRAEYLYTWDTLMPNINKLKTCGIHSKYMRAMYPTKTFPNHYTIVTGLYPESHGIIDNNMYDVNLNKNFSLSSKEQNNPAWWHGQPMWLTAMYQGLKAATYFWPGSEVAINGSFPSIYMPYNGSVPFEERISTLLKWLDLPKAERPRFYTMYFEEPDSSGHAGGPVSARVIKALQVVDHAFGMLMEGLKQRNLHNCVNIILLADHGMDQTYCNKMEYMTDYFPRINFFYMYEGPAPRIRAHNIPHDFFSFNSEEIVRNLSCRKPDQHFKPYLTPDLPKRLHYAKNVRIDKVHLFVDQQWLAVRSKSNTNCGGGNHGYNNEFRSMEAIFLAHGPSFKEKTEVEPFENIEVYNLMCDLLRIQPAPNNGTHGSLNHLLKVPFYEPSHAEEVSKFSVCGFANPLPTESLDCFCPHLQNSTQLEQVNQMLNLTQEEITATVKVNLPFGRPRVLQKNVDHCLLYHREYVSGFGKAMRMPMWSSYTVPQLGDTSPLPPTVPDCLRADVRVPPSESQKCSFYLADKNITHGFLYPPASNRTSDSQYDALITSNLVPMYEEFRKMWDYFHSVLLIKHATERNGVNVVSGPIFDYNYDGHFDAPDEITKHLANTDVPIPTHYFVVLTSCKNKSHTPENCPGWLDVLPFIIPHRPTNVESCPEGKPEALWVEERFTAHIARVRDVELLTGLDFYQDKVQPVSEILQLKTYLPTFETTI
UniProt Q8N766: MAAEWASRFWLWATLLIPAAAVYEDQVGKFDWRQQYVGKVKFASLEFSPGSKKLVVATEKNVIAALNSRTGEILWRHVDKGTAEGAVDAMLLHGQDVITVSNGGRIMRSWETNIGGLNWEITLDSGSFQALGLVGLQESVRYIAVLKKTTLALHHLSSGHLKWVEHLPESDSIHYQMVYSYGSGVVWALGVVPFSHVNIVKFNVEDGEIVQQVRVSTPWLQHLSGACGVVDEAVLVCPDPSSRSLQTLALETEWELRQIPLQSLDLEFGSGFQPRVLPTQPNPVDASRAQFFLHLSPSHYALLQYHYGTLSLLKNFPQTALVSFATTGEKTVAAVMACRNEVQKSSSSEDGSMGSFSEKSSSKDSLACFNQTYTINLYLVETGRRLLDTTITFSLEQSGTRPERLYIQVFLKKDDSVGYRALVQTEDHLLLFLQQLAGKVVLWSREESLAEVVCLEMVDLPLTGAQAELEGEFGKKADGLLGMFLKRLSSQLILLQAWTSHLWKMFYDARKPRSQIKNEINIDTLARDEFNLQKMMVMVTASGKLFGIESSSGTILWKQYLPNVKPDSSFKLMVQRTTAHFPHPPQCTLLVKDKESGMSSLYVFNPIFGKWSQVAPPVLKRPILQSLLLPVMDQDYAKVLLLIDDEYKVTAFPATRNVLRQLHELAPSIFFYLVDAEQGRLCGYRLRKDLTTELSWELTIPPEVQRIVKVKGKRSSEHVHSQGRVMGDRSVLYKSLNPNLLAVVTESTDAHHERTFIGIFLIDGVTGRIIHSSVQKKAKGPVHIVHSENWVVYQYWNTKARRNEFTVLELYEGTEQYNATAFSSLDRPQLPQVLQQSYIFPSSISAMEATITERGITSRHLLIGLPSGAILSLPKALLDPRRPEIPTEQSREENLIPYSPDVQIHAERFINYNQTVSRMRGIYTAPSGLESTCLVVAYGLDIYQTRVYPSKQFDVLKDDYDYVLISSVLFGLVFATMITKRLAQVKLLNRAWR
UniProt Q9HC35: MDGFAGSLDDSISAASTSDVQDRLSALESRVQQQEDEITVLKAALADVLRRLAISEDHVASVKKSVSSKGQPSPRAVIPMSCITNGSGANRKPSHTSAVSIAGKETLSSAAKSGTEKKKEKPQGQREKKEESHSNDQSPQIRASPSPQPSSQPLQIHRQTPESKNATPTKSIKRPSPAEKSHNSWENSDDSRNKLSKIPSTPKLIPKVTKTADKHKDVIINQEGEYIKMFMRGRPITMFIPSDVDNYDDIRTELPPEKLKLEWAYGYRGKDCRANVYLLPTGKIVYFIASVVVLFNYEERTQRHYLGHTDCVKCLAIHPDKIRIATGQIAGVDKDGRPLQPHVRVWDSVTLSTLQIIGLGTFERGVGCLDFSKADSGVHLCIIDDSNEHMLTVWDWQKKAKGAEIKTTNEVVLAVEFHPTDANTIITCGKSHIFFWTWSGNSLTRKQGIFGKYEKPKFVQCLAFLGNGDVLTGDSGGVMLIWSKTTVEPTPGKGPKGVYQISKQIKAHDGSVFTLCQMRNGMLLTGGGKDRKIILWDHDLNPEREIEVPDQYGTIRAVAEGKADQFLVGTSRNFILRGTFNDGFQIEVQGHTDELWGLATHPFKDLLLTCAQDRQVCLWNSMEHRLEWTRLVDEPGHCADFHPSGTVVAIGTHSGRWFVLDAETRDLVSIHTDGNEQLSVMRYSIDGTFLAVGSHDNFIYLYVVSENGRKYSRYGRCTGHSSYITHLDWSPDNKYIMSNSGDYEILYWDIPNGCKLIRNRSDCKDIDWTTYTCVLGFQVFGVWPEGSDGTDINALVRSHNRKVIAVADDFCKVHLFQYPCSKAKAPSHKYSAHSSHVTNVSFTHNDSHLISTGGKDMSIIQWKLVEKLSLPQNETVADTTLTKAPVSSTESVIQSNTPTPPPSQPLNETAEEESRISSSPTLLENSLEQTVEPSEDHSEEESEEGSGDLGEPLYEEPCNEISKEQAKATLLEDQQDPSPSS

Experiments:
Assay in all cases: log2 fold change, soluble protein after heating vs DMSO (PISA); higher = thermal stabilisation; K562 lysate, 10 uM; active = over 0.2 and 3.5 SD of the protein, either way, in both replicates (recomputed)
[1] = compound: NCC(=O)Nc1ccc(-n2nc(C(F)(F)F)cc2-c2ccc3c(ccc4ccccc43)c2)cc1
Procedure, shortened: (§1)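 Quantification was by TMTpro 16plex LC-MS/MS with equalised channel sums, applied to the supernatant after 21,000xg for 90 min. Samples were crude K562 extract at 1 mg/mL protein in PBS pH 7.4 with 1 mM MgCl2, treated with 10 μM compound for 30 min, heated for 3 min across 48°C-58°C, pooled and brought to 0.5% NP-40 at 4°C. Values are log-two fold changes in thermal stability relative to solvent controls, from duplicates.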

vorinostat = compound: O=C(CCCCCCC(=O)Nc1ccccc1)NO [vorinostat]
Procedure, shortened: as §1

silmitasertib = compound: O=C(O)c1ccc2c(c1)nc(Nc1cccc(Cl)c1)c1ccncc12 [silmitasertib]
Procedure, shortened: as §1

[2] = compound: O=C1NC(=O)C(c2cnc3ccccn23)=C1c1cn2c3c(cc(F)cc13)CN(C(=O)N1CCCCC1)CC2
Procedure, shortened: as §1

entospletinib = compound: c1cn2cc(-c3ccc4cn[nH]c4c3)nc(Nc3ccc(N4CCOCC4)cc3)c2n1 [entospletinib]
Procedure, shortened: as §1

Measured: log2 fold change

EPB41, A0A2R8Y6D0
inactive: [1] 0.082 | vorinostat 0.094 | silmitasertib 0.037 | [2] -0.08 | entospletinib 0.016

EIF2B3 (UniProt Q9NR50)
inactive: [1] -0.006 | silmitasertib 0.01 | [2] 0.009 | entospletinib -0.004
active: vorinostat -0.244

ELMO2 (UniProt Q96JJ3)
inactive: [1] 0.077 | vorinostat -0.194 | silmitasertib 0.057 | [2] 0.203

ENO1 isoform 2 (UniProt P06733)
inactive: [1] -0.008 | vorinostat 0.099 | silmitasertib 0.045 | [2] 0.005 | entospletinib -0.05

ELL (UniProt P55199)
inactive: [1] 0.12 | vorinostat -0.153 | silmitasertib -0.038 | [2] -0.033 | entospletinib -0.003

ERI3 (UniProt O43414)
inactive: [1] -0.045 | vorinostat -0.069 | silmitasertib 0.017 | [2] -0.007 | entospletinib 0.012

ELMO1 (UniProt Q92556)
inactive: [1] -0.023 | vorinostat 0.015 | silmitasertib -0.017 | [2] -0.044 | entospletinib 0.004

ENO2 (UniProt P09104)
inactive: [1] -0.021 | vorinostat 0.03 | silmitasertib -0.014 | [2] 0.001 | entospletinib -0.068

EIF3J (UniProt O75822)
inactive: [1] 0.017 | vorinostat 0.075 | silmitasertib -0.032 | [2] -0.013 | entospletinib -0.007

ELOVL6 (UniProt Q9H5J4)
inactive: [1] -0.043 | vorinostat 0.094 | silmitasertib 0.005 | [2] 0.043

EIF2S2 (UniProt P20042)
inactive: [1] 0.008 | vorinostat 0.096 | silmitasertib -0.005 | [2] 0.011 | entospletinib -0.016

ERGIC1 (UniProt Q969X5)
inactive: [1] 0.018 | vorinostat 0.05 | silmitasertib -0.003 | [2] -0.03 | entospletinib -0.011

EIF2AK2 (UniProt P19525)
active: vorinostat -0.415
inactive: [1] 0.021 | silmitasertib 0.038 | [2] -0.017 | entospletinib 0.068

EPB41 (UniProt P11171)
inactive: [1] -0.046 | vorinostat 0.035 | silmitasertib 0.007 | [2] -0.034 | entospletinib 0

EPS15L1 isoform 2 (UniProt Q9UBC2)
inactive: [1] 0.004 | vorinostat 0.108 | silmitasertib -0.007 | [2] -0.007 | entospletinib -0.011

ERI1 (UniProt Q8IV48)
inactive: [1] -0.001 | silmitasertib -0.035 | [2] -0.017 | entospletinib 0.041
active: vorinostat -0.221

ERAL1 (UniProt O75616)
inactive: [1] -0.013 | vorinostat -0.103 | silmitasertib 0.044 | [2] -0.044 | entospletinib -0.083

EIF5A isoform 2 (UniProt P63241)
inactive: [1] -0.021 | vorinostat 0.058 | silmitasertib -0.007 | [2] 0.025 | entospletinib 0.003

ERGIC2 (UniProt Q96RQ1)
inactive: [1] 0.004 | vorinostat 0.123 | silmitasertib 0.028 | [2] -0.019 | entospletinib 0.042

EMC3 (UniProt Q9P0I2)
inactive: [1] 0.025 | vorinostat 0.109 | silmitasertib 0.008 | [2] -0.003 | entospletinib -0.007

Six consecutive records already listed, for reference:
ENO1 isoform 2 (UniProt P06733)
inactive: [1] -0.008 | vorinostat 0.099 | silmitasertib 0.045 | [2] 0.005 | entospletinib -0.05

ELL (UniProt P55199)
inactive: [1] 0.12 | vorinostat -0.153 | silmitasertib -0.038 | [2] -0.033 | entospletinib -0.003

ERI3 (UniProt O43414)
inactive: [1] -0.045 | vorinostat -0.069 | silmitasertib 0.017 | [2] -0.007 | entospletinib 0.012

ELMO1 (UniProt Q92556)
inactive: [1] -0.023 | vorinostat 0.015 | silmitasertib -0.017 | [2] -0.044 | entospletinib 0.004

ENO2 (UniProt P09104)
inactive: [1] -0.021 | vorinostat 0.03 | silmitasertib -0.014 | [2] 0.001 | entospletinib -0.068

EIF3J (UniProt O75822)
inactive: [1] 0.017 | vorinostat 0.075 | silmitasertib -0.032 | [2] -0.013 | entospletinib -0.007

Remaining list, next part:

EMC7 (UniProt Q9NPA0)
inactive: [1] 0.015 | vorinostat 0.085 | silmitasertib -0.007 | [2] -0.018 | entospletinib -0.023

EIF2B1 (UniProt Q14232)
inactive: [1] -0.006 | vorinostat 0.076 | silmitasertib -0.025 | [2] 0.004 | entospletinib 0.018

ENPP3 (UniProt O14638)
inactive: [1] -0.024 | vorinostat 0.169 | silmitasertib -0.077 | [2] 0.009 | entospletinib -0.03

EMC1 (UniProt Q8N766)
inactive: [1] 0.001 | vorinostat 0.092 | silmitasertib 0.008 | [2] -0.013 | entospletinib -0.001

EIF2AK4 (UniProt Q9P2K8)
inactive: [1] 0.035 | vorinostat -0.069 | silmitasertib 0.017 | [2] 0.004 | entospletinib -0.012

EML4 (UniProt Q9HC35)
inactive: [1] -0.008 | vorinostat -0.086 | silmitasertib 0.021 | [2] -0.006 | entospletinib 0.003

EIF2S3 (UniProt P41091)
inactive: [1] 0.012 | vorinostat 0.1 | silmitasertib -0.013 | [2] -0.006 | entospletinib 0.047
